These are yes or no findings as the source states them, for the method shown. Binding seen in cells or lysates may run through a third protein. Here binding means that the protein was enriched with, or labelled near, the bait; the list need not be complete.
Molecular target: full-length S protein tagged at its N-terminus with GFP (S. pneumoniae)
Experiment: affinity purification with mass spectrometry

B1: PBP1a (enzyme, UniProt Q8DR59 1-719)
chain: MNKPTILRLIKYLSISFLSLVIAAIVLGGGVFFYYVSKAPSLSESKLVATTSSKIYDNKNQLIADLGSERRVNAQANDIPTDLVKAIVSIEDHRFFDHRGIDTIRILGAFLRNLQSNSLQGGSALTQQLIKLTYFSTSTSDQTISRKAQEAWLAIQLEQKATKQEILTYYINKVYMSNGNYGMQTAAQNYYGKDLNNLSLPQLALLAGMPQAPNQYDPYSHPEAAQDRRNLVLSEMKNQGYISAEQYEKAVNTPITDGLQSLKSASNYPAYMDNYLKEVINQVEEETGYNLLTTGMDVYTNVDQEAQKHLWDIYNTDEYVAYPDDELQVASTIVDVSNGKVIAQLGARHQSSNVSFGINQAVETNRDWGSTMKPITDYAPALEYGVYESTATIVHDEPYNYPGTNTPVYNWDRGYFGNITLQYALQQSRNVPAVETLNKVGLNRAKTFLNGLGIDYPSIHYSNAISSNTTESDKKYGASSEKMAAAYAAFANGGTYYKPMYIHKVVFSDGSEKEFSNVGTRAMKETTAYMMTDMMKTVLSYGTGRNAYLAWLPQAGKTGTSNYTDEEIENHIKTSQFVAPDELFAGYTRKYSMAVWTGYSNRLTPLVGNGLTVAAKVYRSMMTYLSEGSNPEDWNIPEGLYRNGEFVFKNGARSTWSSPAPQQPPSTESSSSSSDSSTSQSSSTTPSTNNSTTTNPNNNTQQSNTTPDQQNQNPQPAQP
In the case of B1, the binding is reported as “binds”.

B2: PgdA (enzyme, UniProt Q8DP63 1-463)
chain: MNKSRLGRGRHGKTRHVLLALIGILAISICLLGGFIAFKIYQQKSFEQKIESLKKEKDDQLSEGNQKEHFRQGQAEVIAYYPLQGEKVISSVRELINQDVKDKLESKDNLVFYYTEQEESGLKGVVNRNVTKQIYDLVAFKIEETEKTSLGKVHLTEDGQPFTLDQLFSDASKAKEQLIKELTSFIEDKKIEQDQSEQIVKNFSDQDLSAWNFDYKDSQIILYPSPVVENLEEIALPVSAFFDVIQSSYLLEKDAALYQSYFDKKHQKVVALTFDDGPNPATTPQVLETLAKYDIKATFFVLGKNVSGNEDLVKRIKSEGHVVGNHSWSHPILSQLSLDEAKKQITDTEDVLTKVLGSSSKLMRPPYGAITDDIRNSLDLSFIMWDVDSLDWKSKNEASILTEIQHQVANGSIVLMHDIHSPTVNALPRVIEYLKNQGYTFVTIPEMLNTRLKAHELYYSRDE
For B2, the binding was “binds”.
